Values of other authors as cited in patent publication US20030170326A1, “Bioavailability enchancing activity of Zingiber officinale Linn and its extracts/fractions thereof” (COUNCIL OF SCIENTIFIC AND INDUSTRIAL RESEARCH, priority 2001, published 2003).
At least one structure is not confirmed: it was looked up by name or label, or the drawing left a doubt.

Conditions: in combination with piperine; at par with standard dose (450 mg); cited from earlier work

CO[C@H]1/C=C/O[C@@]2(C)Oc3c(C)c(O)c4c(O)c(c(/C=N/N5CCN(C)CC5)c(O)c4c3C2=O)NC(=O)/C(C)=C\C=C\[C@H](C)[C@H](O)[C@@H](C)[C@@H](O)[C@@H](C)[C@H](OC(C)=O)[C@@H]1C [Rifampicin]
reduction of the dose of rifampicin retaining therapeutic efficacy: about 50%
